Assay results from paper PMC5785985.

Protein sequences, listed by entry. Tags and fused reporters are not part of them. Residues count along the entry.
UniProt P27695, 44-318 C138A: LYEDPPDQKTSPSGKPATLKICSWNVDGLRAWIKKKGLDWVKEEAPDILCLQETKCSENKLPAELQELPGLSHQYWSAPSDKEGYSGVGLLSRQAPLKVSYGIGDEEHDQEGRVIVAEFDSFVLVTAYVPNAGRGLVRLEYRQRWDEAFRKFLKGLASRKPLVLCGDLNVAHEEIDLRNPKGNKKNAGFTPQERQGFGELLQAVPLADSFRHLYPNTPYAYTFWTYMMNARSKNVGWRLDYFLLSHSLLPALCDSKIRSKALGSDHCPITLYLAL

Biological target: APE1 (ΔAPE1 C138A) (Homo sapiens) (UniProt P27695)
Test: X-ray crystallography (2.3 Å)
Conditions: 3'-phosphoglycolate on strand 2; 5'-phosphate on strand 3; Crystallization: 7-14% PEG 20K, 100 mM sodium citrate pH 5.0, 15% glycerol, 5 mM CaCl2, 20 °C; 0.56 mM DNA, 10-12 mg/ml APE1; data at 100 K; recombinant protein; residues 44-318

Sequence: GGATCCGTCGATCGCATCAGC / GCTGATGCG / TCGACGGATCC [21-mer nicked duplex, 3'-phosphoglycolate]
- binding result: binds

Construct, isoform or probe ends are uncertain for at least one entry.
